Assay results reported in article PMC6925144, “A prospective compound screening contest identified broader inhibitors for Sirtuin 1” (Scientific Reports, 2019).
Whole data set: some 3,200 compounds, median “TSA(with NAD+) / Primary screening (TSA) / delta Tm (K)” near -0.04, cut for the highest 2% near 0.37. The list shows a part of the results.

By UniProt entry, the sequences of proteins in these tests, tags left out. Residues count along the entry.
UniProt Q96EB6, 2-747 limits assumed: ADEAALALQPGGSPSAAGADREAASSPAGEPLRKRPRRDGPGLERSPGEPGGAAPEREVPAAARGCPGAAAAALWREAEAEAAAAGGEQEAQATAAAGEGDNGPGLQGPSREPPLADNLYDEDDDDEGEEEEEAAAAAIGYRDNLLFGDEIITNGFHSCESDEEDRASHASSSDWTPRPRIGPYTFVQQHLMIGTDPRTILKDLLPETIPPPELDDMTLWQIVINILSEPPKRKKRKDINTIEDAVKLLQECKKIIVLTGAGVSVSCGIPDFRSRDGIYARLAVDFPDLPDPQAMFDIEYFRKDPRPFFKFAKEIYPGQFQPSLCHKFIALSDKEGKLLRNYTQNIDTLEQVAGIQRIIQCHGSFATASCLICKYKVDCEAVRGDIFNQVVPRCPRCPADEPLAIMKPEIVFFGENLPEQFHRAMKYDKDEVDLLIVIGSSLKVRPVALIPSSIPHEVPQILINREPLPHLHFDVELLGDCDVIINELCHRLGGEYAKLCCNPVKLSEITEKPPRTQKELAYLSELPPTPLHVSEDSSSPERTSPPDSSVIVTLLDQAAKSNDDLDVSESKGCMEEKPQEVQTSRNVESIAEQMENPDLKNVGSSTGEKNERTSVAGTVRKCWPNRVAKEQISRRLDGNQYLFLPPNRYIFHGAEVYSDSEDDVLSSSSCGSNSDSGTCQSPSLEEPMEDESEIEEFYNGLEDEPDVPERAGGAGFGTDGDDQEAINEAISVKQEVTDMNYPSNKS

Each molecule was assayed against NAD-dependent deacetylase Sirtuin 1 (human, UniProt Q96EB6) (assay: primary screen, delta tm). Details: 10 µM.
Parameters: single well (n = 1, as 'the same TSA')

SMILES | TSA(with NAD+) / Primary screening (TSA) / delta Tm (K)
COc1ccccc1CNC(=O)C(Sc1ccccc1)c1ccccc1 (stereo not shown) | -0.01
NC(=O)C1CCN(c2nc(-c3cccnc3)nc3sc4c(c23)CCCC4)CC1 | 0.48
CCCCC(=O)OCC(=O)NCCc1ccc(S(N)(=O)=O)cc1 | -0.02
Cc1cc(C=C2C(=O)NC(=S)NC2=O)c(C)n1-c1cccc(F)c1 | -0.46
COc1cccc(C=C2C(=O)NC(=S)NC2=O)c1 | -0.01
CC(=O)c1cccc(NC(=O)C(C)OC(=O)c2ccc(OCC(=O)N3C(C)CCCC3C)cc2)c1 (stereo not shown) | 0.15
Cc1cc(C)nc(SCc2ccccc2C(=O)N2CCN(CC(=O)Nc3cccc(F)c3)CC2)n1 | -0.04
CC(=O)Nc1ccc(CC(=O)NCC(c2ccccc2)N(C)C)cc1 (stereo not shown) | 0.06
CC1CCc2ccccc2N1C(=O)CSc1n[nH]c2nc3ccccc3n12 (stereo not shown) | -0.06
Oc1ccc2ccccc2c1/C=N/c1ccc(F)c(F)c1 | -0.06
CC(NC(=O)c1occc1-c1ccc(F)cc1)c1ccc2c(c1)CCC(=O)N2 (stereo not shown) | -0.11
Cc1cc(C)c2cc(C(=O)N3CCC(C(N)=O)CC3)[nH]c2c1 | -0.33
Cc1nn2cccnc2c1C(=O)NCC1CC12CCc1ccccc12 (stereo not shown) | -0.18
CN(C)S(=O)(=O)c1ccc(C(=O)C2=C(O)C(=O)N(CCN3CCOCC3)C2c2ccco2)cc1 (stereo not shown) | -0.23
O=C(c1ccc2[nH]c3c(c2c1)CCCC3)N1CC1 | -0.18
CCN(C(=O)CSc1nnc(SCc2ccc(Cl)cc2)s1)C1CCS(=O)(=O)C1 (stereo not shown) | -0.01
O=C(O)CCCNc1ncnc2sc3c(c12)CCCC3 | -0.22
COc1c(C=C2C(=O)NC(=S)NC2=O)ccc2ccccc12 | -0.33
Cc1cc(NN)n2nc(C(F)(F)F)c(-c3ccc(Cl)cc3)c2n1 | 0.37
O=C(CCc1ccc2c(c1)OCO2)N1CCc2[nH]c3ccccc3c2C1 | -0.01
CCN(C(=O)CSc1nnc(-c2ccc3c(c2)OCO3)o1)C1CCS(=O)(=O)C1 (stereo not shown) | 0.16
C=CCCCN | -0.13
COCC(O)CN (stereo not shown) | -0.12
CC(=O)Nc1cc2ccccc2cc1C(=O)NC1CCOc2ccccc21 (stereo not shown) | -0.08

SMILES | TSA(with NAD+) / Primary screening (TSA) / delta Tm (K)
Cc1ccc(-c2nn(-c3ccccc3)cc2C(=O)NCc2nnc3ccccn23)cc1 | -0.13
OC1CCN(c2ncnc3c2oc2ccccc23)CC1 | -0.28
Cn1ccnc1C(NC(=O)Cc1ccc(F)cc1)c1ccccc1F (stereo not shown) | -0.05
C[C@@H]1C[C@H]1N | -0.03
O=C(CC12CC3CC(CC(O)(C3)C1)C2)Nc1cccc2c1CCCC2 | -0.01
CC1CN(S(=O)(=O)CCNC(=O)Nc2cc3c(cc2Cl)OCCO3)CC(C)O1 (stereo not shown) | -0.12
COc1ccc(N(C)S(=O)(=O)c2cccc(C(=O)OCc3cc(=O)oc4cc(C)ccc34)c2)cc1 | -0.01
CNC(=O)CSc1nnc(-c2c[nH]c3ccccc23)n1Cc1ccco1 | 0.05
O=C(NCc1ccc(S(=O)(=O)N2CCOCC2)s1)C1=COCCO1 | 0.07
Cc1nc(C(=O)Nc2ccc(-c3cn4ccsc4n3)cc2)cs1 | -0.11
O=C1NC(=O)c2ccccc2/C1=C\NCCCN1CCc2ccccc21 | -0.19
CCNC(=O)c1ccc2[nH]c(C)c(C)c2c1 | 0.06
Cc1ccc(F)cc1C(=O)OCc1nc(C(C)C)ns1 | -0.21
Cc1ccc(N(C)S(=O)(=O)c2cccc(C(=O)Nc3cccc(C(=O)NC4CC4)c3)c2)cc1 | -0.03
COC(=O)CCNc1ncnc2ccsc12 | -0.19
O=C(Nc1ccc(N2CCN(Cc3ccccc3)CC2)cc1)c1cccc2cccnc12 | 0.01
Cc1ccc(-c2nc(COC(=O)CN3C(=O)c4ccccc4C3=O)cs2)cc1 | -0.13
O=C(NC(c1ccccc1)c1ccccc1)c1ccc2ccccc2c1 | -0.12
CC(=O)NCCCN | 0.06
CCOC(=O)c1ccc(S(=O)(=O)N2CCC(C(=O)OCC(=O)NCC34CC5CC(CC(C5)C3)C4)CC2)cc1 | 0.01
NCCCC[C@H](N)C(=O)O | -0.28
CC1CCCCN1c1ncnc2c1cnn2-c1ccccc1 (stereo not shown) | 0.19
O=C(CN1CCCC1=O)Nc1cc(Br)c(F)cc1F | -0.13
CC(OC(=O)c1cc2c(s1)CCCC2)C(=O)Nc1ccc(C(N)=O)cc1 (stereo not shown) | 0.01

SMILES | TSA(with NAD+) / Primary screening (TSA) / delta Tm (K)
Cc1cccc(NC(=O)COc2ccc3c4c(c(=O)oc3c2)CCC4)c1 | 0.06
COc1ccc(CNC(=O)C(C)OC(=O)c2cc(S(=O)(=O)NC34CC5CC(CC(C5)C3)C4)ccc2Cl)cc1 (stereo not shown) | -0.11
Cc1onc(-c2ccc(F)cc2)c1C(=O)N1CCN(S(=O)(=O)c2ccc3c(c2)CCC3)CC1 | -0.09
CC(CN)S(C)=O (stereo not shown) | -0.28
COc1ccc(NC(C)c2ccc(S(C)=O)cc2)cn1 (stereo not shown) | -0.11
O=C(/C=C/c1ccc(F)cc1)NCCCn1ccc2ccccc21 | 0.02
Cc1ccc(NC(=O)CCC2CCCO2)cc1I (stereo not shown) | -0.15
O=C(CCCc1nc2ccccc2c(=O)[nH]1)N1CC2CC3CC(C2)CC1C3 | -0.01
CCCCc1ccc(/N=C/c2ccc3ncccc3c2)cc1 | 0.06
COc1ccc(C2C(C(=O)c3ccco3)=C(O)C(=O)N2CCCN2CCOCC2)cc1 (stereo not shown) | -0.04
O=c1cc(-c2ccccc2)c2ccc(OCCOc3ccc(Br)cc3)cc2o1 | -0.01
Cc1noc2ncc(NC(=O)c3c[nH]nc3-c3ccccc3F)cc12 | -0.08
CN1C(=O)N(CC(=O)O)C(=O)C12CCCCC2 | -0.06
CN(C)/C=N/c1ncnc2c1cnn2-c1ccccc1 | -0.03
Cc1ccc(C(=O)N2CCC(C(=O)Nc3ccccc3)CC2)cc1S(=O)(=O)NCc1ccccc1 | 0.03
NC(=O)c1cc(NC(=O)CN2CCN(c3ccccc3O)CC2)cc(C(N)=O)c1 | -0.09
N#CC(C(=O)c1ccc(NS(=O)(=O)c2ccccc2)cc1)c1nc(-c2ccccn2)cs1 (stereo not shown) | 0.47
O=C([O-])COCCO | -0.12
NC(=O)C1CCN(C(=O)/C=C/c2ccc(-c3ccccc3F)o2)C1 (stereo not shown) | -0.18
COc1ccc(C2C(C(=O)c3ccc(OC)c(OC)c3)=C(O)C(=O)N2CCCN2CCOCC2)cc1 (stereo not shown) | -0.01
CCOC(=O)CN(Cc1ccccc1)Cc1cc(=O)c(OC)co1 | 0.01
CC(C)(N)CCN | -0.03
CC(=O)c1cc(Cl)ccc1OCc1cc(=O)n2ccccc2n1 | -0.01
CN(C(=O)CSc1ncnc2c1cnn2C)C1CCCc2ccccc21 (stereo not shown) | -0.23

SMILES | TSA(with NAD+) / Primary screening (TSA) / delta Tm (K)
Cc1ccc(CCNC(=O)CNC(=O)c2cc3ccccc3[nH]2)cn1 | 0.11
O=c1c2ccccc2n2c(SCc3nnc(-c4cccs4)o3)nnc2n1-c1ccccc1 | -0.11
Cc1ccc(C23CC4CC(CC(C(=O)OCC(=O)Nc5ccc6c(c5)OCO6)(C4)C2)C3)cc1 | 0.27
CN(Cc1nc2ccccc2s1)C(=O)CSc1nnc(-c2cccnc2)n1C1CC1 | -0.04
O=C(O)CCCCCN1C(=O)/C(=C/c2cccc3ccccc23)SC1=S | 0.01
CC(C)(C)OC(=O)N1CCCCC1CNc1cnc2ccccc2n1 (stereo not shown) | -0.13
NC(=O)C1CCN(Cc2nc3cc(Cl)ccc3c(=O)[nH]2)CC1 | 0.05
O=C(CCc1nc2ccccc2c(=O)[nH]1)Nc1ccc(N2CCN(Cc3ccccc3)CC2)cc1 | 0.03
CCCCn1ccnc1C(=O)c1cccc(S(=O)(=O)N(C)c2ccccc2)c1 | -0.08
Cc1ccc2[nH]c(C(=O)O)c(C)c2c1 | -0.04
Cc1ccc(C(=O)NNC(=O)c2cccc(S(=O)(=O)N(C)c3ccc(C)cc3)c2)cc1 | -0.03
O=C(NCc1nnc2n1-c1ccccc1CC2)c1ccc2ccccc2c1 | 0.05
Cc1ccc(S(=O)(=O)Nc2ccc(F)cc2)cc1C(=O)NCc1cccc(NC(=O)C2CC2)c1 | -0.06
Cc1c(C(=O)NCc2nnc3n2CCC3)oc2ccc(Cl)cc12 | 0.06
O=C(/C=C/c1ccccc1)C1=C(O)C(=O)N(CCCN2CCOCC2)C1c1ccc(Cl)cc1 (stereo not shown) | -0.05
Cc1ccc(COC(=O)c2cccc3c2C(=O)c2ccccc2C3=O)cc1 | 0.11
CCOC(=O)C1=C(C)NC(C)=C(C(=O)OCC)C1c1nc2ccccc2[nH]1 | -0.09
Cc1nc(N2CCN(CC3CCCO3)CC2)c2c(-c3ccccc3)csc2n1 (stereo not shown) | -0.01
Oc1cnc2ccccc2c1 | -0.05
COc1cccc(C2C(C(=O)/C=C/c3ccco3)=C(O)C(=O)N2CCCN2CCOCC2)c1 (stereo not shown) | -0.12
CC(=O)NC1CCCN(c2nc3ccccc3cc2CO)C1 (stereo not shown) | -0.01
CCS(=O)(=O)Nc1ccc(S(=O)(=O)Nc2nccs2)c(OC)c1 | -0.05

Sorted by count of non-hydrogen atoms (descending): some entries from above.
SMILES | TSA(with NAD+) / Primary screening (TSA) / delta Tm (K)
COc1cccc(C2C(C(=O)/C=C/c3ccco3)=C(O)C(=O)N2CCCN2CCOCC2)c1 (stereo not shown) | -0.12
Cc1ccc(COC(=O)c2cccc3c2C(=O)c2ccccc2C3=O)cc1 | 0.11
CCS(=O)(=O)Nc1ccc(S(=O)(=O)Nc2nccs2)c(OC)c1 | -0.05
Oc1cnc2ccccc2c1 | -0.05
